Measurements taken from publication doi:10.1101/2020.03.06.981126.
Results are given in words; binding and its absence hold for the method and conditions named. For part of these data: Binding seen in cells or lysates may run through a third protein. Some entries that bind do so weakly or less than the wild type.

Assays:
[1] = target: Myc-OsIRO2 (Oryza sativa) (UniProt Q0JFZ0); test: co-IP
[2] = target: GFP10-OsIRO2 (full-length OsIRO2 fused to the GFP10 fragment) (Oryza sativa) (UniProt Q0JFZ0); test: split reporter
[3] = target: OsIRO2-N (truncated IRON-RELATED BHLH …ON FACTOR 2, aa 1-150) (Oryza sativa) (UniProt Q0JFZ0); test: two-hybrid

## HA-OsFIT (from UniProt A0A0N7KIY3 1-352)
[1]
  binding: binds

## OsFIT-GFP11 (full-length OsFIT fused to the GFP11 fragment) (from UniProt A0A0N7KIY3 1-352)
[2]
  binding: binds

## Oryza sativa FER-LIKE FE …-INDUCED …ON FACTOR (OsFIT), full length, in pGADT7 (from UniProt A0A0N7KIY3 1-352)
[3]
  binding: binds
